# Results reported in the supplement of paper PMC6658780.
# Where a name gives a salt, the structure may show the parent alone. ± gives the standard deviation of the averaged measurements. This is one part of the list. This data set is noisy: repeats of one test often differ as much as different tests do.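 Clinical A. baumannii isolates resistant to the partner antibiotic were chosen, and the screen identifies drugs restoring that antibiotic's activity. Subtracting the initial incubation reading corrects for coloured-compound background.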
# What was measured:
# [1] = test system: Acinetobacter baumannii NCTC-13301; test: percent growth inhibition of drug alone vs DMSO control; higher = more growth inhibition; conditions: antibiotic (0.125x MIC): none (0.1% DMSO)
# [2] = test system: Acinetobacter baumannii NCTC-13301; test: percent growth inhibition of drug + antibiotic vs DMSO control; higher = more growth inhibition
# [3] = test system: Acinetobacter baumannii WP-487; test: as above; conditions: antibiotic (0.125x MIC): colistin
# [4] = test system: Acinetobacter baumannii WP-487; test: percent growth inhibition of drug alone vs DMSO control; higher = more growth inhibition; conditions: antibiotic (0.125x MIC): none (0.1% DMSO)
# [5] = antibiotic (0.125x MIC): meropenem, 7 µM
# [6] = antibiotic (0.125x MIC): meropenem, 20 µM
# [7] = antibiotic (0.125x MIC): ciprofloxacin, 7 µM
# [8] = antibiotic (0.125x MIC): ciprofloxacin, 20 µM
# [9] = antibiotic (0.125x MIC): gentamicin, 7 µM
# [10] = antibiotic (0.125x MIC): gentamicin, 20 µM
# [11] = antibiotic (0.125x MIC): tigecycline, 7 µM
# [12] = antibiotic (0.125x MIC): tigecycline, 20 µM
smiles,measurement,setting,value
CC[C@H]1OC(=O)[C@H](C)[C@@H](O[C@H]2C[C@@](C)(OC)[C@@H](O)[C@H](C)O2)[C@H](C)[C@@H](O[C@@H]2O[C@H](C)C[C@H](N(C)C)[C@H]2O)[C@](C)(O)C[C@@H](C)C(=O)[C@H](C)[C@@H](O)[C@]1(C)O [Erythromycin],percent growth inhibition of drug alone,[1]; 7 µM,13.2 ± 0.32%
same,percent growth inhibition of drug alone,[1]; 20 µM,55.3 ± 3.2%
same,percent growth inhibition,[2]; [5],13.9 ± 3.3%
same,percent growth inhibition,[2]; [6],93.5 ± 5.8%
O=c1cc(-c2ccc(O)c(O)c2)oc2cc(O)cc(O)c12 [Luteolin],percent growth inhibition of drug alone,[1]; 7 µM,-2.57 ± 5.6%
same,percent growth inhibition of drug alone,[1]; 20 µM,-32.5 ± 30%
same,percent growth inhibition,[2]; [7],1.42 ± 5.6%
same,percent growth inhibition,[2]; [8],-0.781 ± 1.8%
same,percent growth inhibition,[2]; [9],-0.497 ± 4.9%
same,percent growth inhibition,[2]; [10],-0.973 ± 5.2%
same,percent growth inhibition,[2]; [5],5.72 ± 9.8%
same,percent growth inhibition,[2]; [6],-4.43 ± 2.7%
same,percent growth inhibition,[2]; [11],4.4 ± 0.39%
same,percent growth inhibition,[2]; [12],-1.25 ± 2.2%
C[C@@H](O[C@H]1OCCN(Cc2n[nH]c(=O)[nH]2)[C@H]1c1ccc(F)cc1)c1cc(C(F)(F)F)cc(C(F)(F)F)c1 [Aprepitant],percent growth inhibition of drug alone,[1]; 7 µM,-9.08 ± 11%
same,percent growth inhibition of drug alone,[1]; 20 µM,-68.7 ± 45%
same,percent growth inhibition,[2]; [7],-7.03 ± 9.3%
same,percent growth inhibition,[2]; [8],-30.4 ± 19%
same,percent growth inhibition,[2]; [5],-0.828 ± 6.2%
same,percent growth inhibition,[2]; [6],-22.1 ± 8.8%
same,percent growth inhibition,[2]; [11],-8.16 ± 7.3%
same,percent growth inhibition,[2]; [12],-37.7 ± 38%
O=C(c1ccc(OCCN2CCCCC2)cc1)c1c(-c2ccc(O)cc2)sc2cc(O)ccc12 [Raloxifene hydrochloride],percent growth inhibition of drug alone,[1]; 7 µM,4.28 ± 5.3%
same,percent growth inhibition of drug alone,[1]; 20 µM,-16.1 ± 18%
same,percent growth inhibition,[2]; [11],-2.56 ± 2.1%
same,percent growth inhibition,[2]; [12],-28 ± 65%
same,percent growth inhibition,[3]; 7 µM,50.3 ± 52%
same,percent growth inhibition,[3]; 20 µM,55.5 ± 51%
CC[C@H]1OC(=O)[C@H](C)[C@@H](O[C@H]2C[C@@](C)(OC)[C@@H](O)[C@H](C)O2)[C@H](C)[C@@H](O[C@@H]2O[C@H](C)C[C@H](N(C)C)[C@H]2O)[C@](C)(OC)C[C@@H](C)C(=O)[C@H](C)[C@@H](O)[C@]1(C)O [Clarithromycin],percent growth inhibition of drug alone,[1]; 7 µM,24 ± 2.5%
same,percent growth inhibition of drug alone,[1]; 20 µM,45.8 ± 3.4%
same,percent growth inhibition,[2]; [5],18.5 ± 3.6%
same,percent growth inhibition,[2]; [6],82 ± 23%
Oc1c(Cl)cc(Cl)c(Cl)c1Cc1c(O)c(Cl)cc(Cl)c1Cl [Hexachlorophene],percent growth inhibition of drug alone,[1]; 7 µM,52.2 ± 12%
same,percent growth inhibition of drug alone,[1]; 20 µM,89.6 ± 15%
same,percent growth inhibition,[2]; [5],81.5 ± 4.2%
same,percent growth inhibition,[2]; [6],101 ± 0.34%
Cc1ccc(C(=O)c2cc(O)c(O)c([N+](=O)[O-])c2)cc1 [Tolcapone],percent growth inhibition of drug alone,[1]; 7 µM,1.72 ± 1.5%
same,percent growth inhibition of drug alone,[1]; 20 µM,-14.1 ± 18%
same,percent growth inhibition,[2]; [9],3.36 ± 1.3%
same,percent growth inhibition,[2]; [10],4.51 ± 4.5%
CC1(C)[C@H](C(=O)O)N2C(=O)C[C@H]2S1(=O)=O [Sulbactam],percent growth inhibition of drug alone,[1]; 7 µM,-1.41 ± 0.68%
same,percent growth inhibition of drug alone,[1]; 20 µM,13.9 ± 8%
same,percent growth inhibition,[2]; [5],23.2 ± 3.7%
same,percent growth inhibition,[2]; [6],91.6 ± 12%
CCC(Cc1c(I)cc(I)c(N)c1I)C(=O)O (centres undefined) [Iopanoic acid],percent growth inhibition of drug alone,[1]; 7 µM,-7.62 ± 12%
same,percent growth inhibition of drug alone,[1]; 20 µM,-11.9 ± 4.7%
same,percent growth inhibition,[2]; [5],8.2 ± 13%
same,percent growth inhibition,[2]; [6],-0.229 ± 4.7%
CN(C(=O)CN(CCO)CC(=O)N(C)C(C)(C)Cc1ccccc1)C(C)(C)Cc1ccccc1 [Oxethazaine],percent growth inhibition of drug alone,[1]; 7 µM,3.03 ± 2.4%
same,percent growth inhibition of drug alone,[1]; 20 µM,-32 ± 20%
same,percent growth inhibition of drug alone,[4]; 7 µM,-0.85 ± 1.5%
same,percent growth inhibition of drug alone,[4]; 20 µM,35.5 ± 52%
same,percent growth inhibition,[2]; [7],-3.25 ± 0.34%
same,percent growth inhibition,[2]; [8],19 ± 5.7%
same,percent growth inhibition,[2]; [9],-36.3 ± 34%
same,percent growth inhibition,[2]; [10],-14.5 ± 1.2%
same,percent growth inhibition,[2]; [5],-4.3 ± 8.6%
same,percent growth inhibition,[2]; [6],-3.74 ± 8.1%
same,percent growth inhibition,[2]; [11],6.41 ± 2.9%
same,percent growth inhibition,[2]; [12],20.5 ± 0.31%
CN(C)[C@@H]1C(O)=C(C(N)=O)C(=O)[C@@]2(O)C(O)=C3C(=O)c4c(O)ccc(Cl)c4[C@@H](O)[C@H]3C[C@@H]12 [Demeclocycline hydrochloride],percent growth inhibition of drug alone,[1]; 7 µM,36.4 ± 11%
same,percent growth inhibition of drug alone,[1]; 20 µM,99.4 ± 0.2%
same,percent growth inhibition,[2]; [5],71.2 ± 20%
same,percent growth inhibition,[2]; [6],99.76 ± 0.13%
CCC1=C(C)CN(C(=O)NCCc2ccc(S(=O)(=O)NC(=O)N[C@H]3CC[C@H](C)CC3)cc2)C1=O [Glimepiride],percent growth inhibition of drug alone,[1]; 7 µM,-2.07 ± 9.2%
same,percent growth inhibition of drug alone,[1]; 20 µM,-0.319 ± 1.4%
same,percent growth inhibition,[2]; [5],7.68 ± 27%
same,percent growth inhibition,[2]; [6],-6.61 ± 12%
CCOc1ccc2ccccc2c1C(=O)N[C@@H]1C(=O)N2[C@@H]1SC(C)(C)[C@@H]2C(=O)O [Nafcillin sodium salt monohydrate],percent growth inhibition of drug alone,[1]; 7 µM,-3.07 ± 2.4%
same,percent growth inhibition of drug alone,[1]; 20 µM,-15.4 ± 21%
same,percent growth inhibition,[2]; [9],0.142 ± 0.42%
same,percent growth inhibition,[2]; [10],-3.22 ± 6%
COc1nc(C)nc(Cl)c1NC1=NCCN1 [Moxonidine],percent growth inhibition of drug alone,[4]; 7 µM,0.173 ± 7%
same,percent growth inhibition of drug alone,[4]; 20 µM,-2.62 ± 1.4%
CC(=O)N1CCN(c2ccc(OCC3COC(Cn4ccnc4)(c4ccc(Cl)cc4Cl)O3)cc2)CC1 (centres undefined) [Ketoconazole],percent growth inhibition of drug alone,[4]; 7 µM,1.59 ± 0.8%
same,percent growth inhibition of drug alone,[4]; 20 µM,-1.95 ± 1.8%
CN1CCN(CCCN2c3ccccc3Sc3ccc(C(F)(F)F)cc32)CC1 [Trifluoperazine dihydrochloride],percent growth inhibition of drug alone,[4]; 7 µM,-4.73 ± 8.1%
same,percent growth inhibition of drug alone,[4]; 20 µM,-5.7 ± 4.3%
CN(C)CCCN1c2ccccc2Sc2ccc(Cl)cc21 [Chlorpromazine hydrochloride],percent growth inhibition of drug alone,[4]; 7 µM,-3.02 ± 14%
same,percent growth inhibition of drug alone,[4]; 20 µM,-3.88 ± 4%
COc1cccc2c1C(=O)c1c(O)c3c(c(O)c1C2=O)C[C@@](O)(C(C)=O)C[C@@H]3O[C@H]1C[C@H](N)[C@H](O)[C@H](C)O1 [Daunorubicin hydrochloride],percent growth inhibition of drug alone,[4]; 7 µM,2.62 ± 7.4%
same,percent growth inhibition of drug alone,[4]; 20 µM,15.1 ± 22%
CCN(CC)CCOC(=O)C1(C2CCCCC2)CCCCC1 [Dicyclomine hydrochloride],percent growth inhibition of drug alone,[4]; 7 µM,-3.61 ± 12%
same,percent growth inhibition of drug alone,[4]; 20 µM,-1.81 ± 4.5%
Cc1cc2cc3c(C)cc(=O)oc3c(C)c2o1 [Trioxsalen],percent growth inhibition of drug alone,[4]; 7 µM,3.89 ± 1.4%
same,percent growth inhibition of drug alone,[4]; 20 µM,2.23 ± 3.8%
O=C(Nc1ccc([N+](=O)[O-])cc1Cl)c1cc(Cl)ccc1O [Niclosamide],percent growth inhibition of drug alone,[4]; 7 µM,6.93 ± 1.3%
same,percent growth inhibition of drug alone,[4]; 20 µM,40 ± 67%
COc1ccc(-c2cc(=S)ss2)cc1 [Anethole-trithione],percent growth inhibition of drug alone,[4]; 7 µM,1.09 ± 3.4%
same,percent growth inhibition of drug alone,[4]; 20 µM,1.97 ± 1%
CC(C)/N=c1\cc2n(-c3ccc(Cl)cc3)c3ccccc3nc-2cc1Nc1ccc(Cl)cc1 [Clofazimine],percent growth inhibition of drug alone,[4]; 7 µM,1.71 ± 5.2%
same,percent growth inhibition of drug alone,[4]; 20 µM,5.57 ± 11%
C#C[C@]1(O)CC[C@H]2[C@@H]3CCC4=CCCC[C@@H]4[C@H]3CC[C@@]21C [Lynestrenol],percent growth inhibition of drug alone,[4]; 7 µM,-2.7 ± 3.1%
same,percent growth inhibition of drug alone,[4]; 20 µM,-0.504 ± 2.7%
Cc1onc(-c2c(F)cccc2Cl)c1C(=O)N[C@@H]1C(=O)N2[C@@H]1SC(C)(C)[C@@H]2C(=O)O [Flucloxacillin sodium],percent growth inhibition of drug alone,[4]; 7 µM,4.79 ± 2.4%
same,percent growth inhibition of drug alone,[4]; 20 µM,0.409 ± 0.091%
Cc1nc2n(c(=O)c1CCN1CCC(c3noc4cc(F)ccc34)CC1)CCCC2 [Risperidone],percent growth inhibition of drug alone,[4]; 7 µM,5.42 ± 5.7%
same,percent growth inhibition of drug alone,[4]; 20 µM,7.38 ± 8.5%
Clc1cc(Cl)c(OCC#CI)cc1Cl [Haloprogin],percent growth inhibition of drug alone,[4]; 7 µM,5.16 ± 1.6%
same,percent growth inhibition of drug alone,[4]; 20 µM,7.57 ± 8.6%
Nc1ccc(S(=O)(=O)Nc2ccc(Cl)nn2)cc1 [Sulfachloropyridazine],percent growth inhibition of drug alone,[4]; 7 µM,8.25 ± 1.5%
same,percent growth inhibition of drug alone,[4]; 20 µM,52.9 ± 56%
CCOC(=O)N1CCC(=C2c3ccc(Cl)cc3CCc3cccnc32)CC1 [Loratadine],percent growth inhibition of drug alone,[4]; 7 µM,-1.87 ± 11%
same,percent growth inhibition of drug alone,[4]; 20 µM,-0.119 ± 3.1%

# Rewritten as tab-separated lines: part of the list above
smiles	measurement	setting	value
O=c1cc(-c2ccc(O)c(O)c2)oc2cc(O)cc(O)c12 [Luteolin]	percent growth inhibition of drug alone	[1]; 7 µM	-2.57 ± 5.6%
CN(C(=O)CN(CCO)CC(=O)N(C)C(C)(C)Cc1ccccc1)C(C)(C)Cc1ccccc1 [Oxethazaine]	percent growth inhibition of drug alone	[4]; 7 µM	-0.85 ± 1.5%
same	percent growth inhibition	[2]; [10]	-14.5 ± 1.2%
CCOc1ccc2ccccc2c1C(=O)N[C@@H]1C(=O)N2[C@@H]1SC(C)(C)[C@@H]2C(=O)O [Nafcillin sodium salt monohydrate]	percent growth inhibition of drug alone	[1]; 7 µM	-3.07 ± 2.4%
same	percent growth inhibition	[2]; [9]	0.142 ± 0.42%

# A different layout for some results above:
smiles | measurement | setting | value
CCC(Cc1c(I)cc(I)c(N)c1I)C(=O)O (centres undefined) [Iopanoic acid] | percent growth inhibition | [2]; [5] | 8.2 ± 13%
CN(C(=O)CN(CCO)CC(=O)N(C)C(C)(C)Cc1ccccc1)C(C)(C)Cc1ccccc1 [Oxethazaine] | percent growth inhibition of drug alone | [4]; 20 µM | 35.5 ± 52%
